US20150073033A1, “BIOMARKERS FOR CANCER CHARACTERIZATION AND TREATMENT” (Board of Regents, The University of Texas System, priority 2011, published 2015)
Results are given in words; binding and its absence hold for the method and conditions named. Binding seen in cells or lysates may run through a third protein. Some binding calls cover weakened binding; strength is not graded here. Values belong to the substance of their own block, whether it stands above or below them.

Sequences of proteins named here, by UniProt entry; tags and fusion partners are left off. A change or cut given only in a name is not applied to a line headed by its entry.
UniProt P14618: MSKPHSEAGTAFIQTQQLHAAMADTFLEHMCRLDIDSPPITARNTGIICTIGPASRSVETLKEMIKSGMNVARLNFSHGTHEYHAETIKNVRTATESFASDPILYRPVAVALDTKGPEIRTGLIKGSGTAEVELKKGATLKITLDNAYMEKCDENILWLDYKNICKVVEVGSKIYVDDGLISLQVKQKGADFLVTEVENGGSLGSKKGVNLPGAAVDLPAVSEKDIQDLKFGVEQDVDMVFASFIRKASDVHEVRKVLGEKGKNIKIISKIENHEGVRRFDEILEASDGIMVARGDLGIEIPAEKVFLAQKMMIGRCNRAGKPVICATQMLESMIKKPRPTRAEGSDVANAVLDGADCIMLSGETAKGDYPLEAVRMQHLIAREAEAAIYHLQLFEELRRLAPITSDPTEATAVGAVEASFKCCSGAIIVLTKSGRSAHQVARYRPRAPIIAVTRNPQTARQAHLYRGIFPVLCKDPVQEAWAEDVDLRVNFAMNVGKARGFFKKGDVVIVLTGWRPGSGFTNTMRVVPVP
UniProt O43683: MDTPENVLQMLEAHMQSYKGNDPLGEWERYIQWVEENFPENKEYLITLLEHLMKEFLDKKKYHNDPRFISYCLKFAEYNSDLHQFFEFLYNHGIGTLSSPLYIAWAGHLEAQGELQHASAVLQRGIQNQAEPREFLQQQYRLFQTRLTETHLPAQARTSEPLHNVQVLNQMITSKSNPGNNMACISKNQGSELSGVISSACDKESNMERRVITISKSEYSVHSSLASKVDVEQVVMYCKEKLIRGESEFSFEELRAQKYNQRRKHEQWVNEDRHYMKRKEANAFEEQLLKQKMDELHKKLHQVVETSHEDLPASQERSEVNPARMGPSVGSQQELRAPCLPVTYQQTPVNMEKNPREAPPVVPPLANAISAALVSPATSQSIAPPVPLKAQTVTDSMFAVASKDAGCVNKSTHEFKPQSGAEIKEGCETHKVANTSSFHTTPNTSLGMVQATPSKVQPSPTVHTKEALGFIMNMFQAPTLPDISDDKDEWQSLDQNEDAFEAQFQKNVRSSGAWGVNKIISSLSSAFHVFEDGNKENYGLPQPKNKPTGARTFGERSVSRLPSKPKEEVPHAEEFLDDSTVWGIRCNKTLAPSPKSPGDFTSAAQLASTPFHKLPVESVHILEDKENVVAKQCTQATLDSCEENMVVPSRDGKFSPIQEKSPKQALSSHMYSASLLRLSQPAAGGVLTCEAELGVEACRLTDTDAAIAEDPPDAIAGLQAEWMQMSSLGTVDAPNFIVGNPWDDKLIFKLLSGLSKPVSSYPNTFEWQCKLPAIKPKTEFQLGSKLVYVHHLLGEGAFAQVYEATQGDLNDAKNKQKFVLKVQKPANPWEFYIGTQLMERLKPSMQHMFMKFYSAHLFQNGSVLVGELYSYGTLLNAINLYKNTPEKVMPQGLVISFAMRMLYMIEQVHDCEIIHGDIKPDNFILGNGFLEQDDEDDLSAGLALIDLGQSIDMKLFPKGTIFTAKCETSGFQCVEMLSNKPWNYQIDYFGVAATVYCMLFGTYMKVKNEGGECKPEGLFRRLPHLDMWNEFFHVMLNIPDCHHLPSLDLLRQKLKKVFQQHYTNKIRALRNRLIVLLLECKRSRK
UniProt O43684: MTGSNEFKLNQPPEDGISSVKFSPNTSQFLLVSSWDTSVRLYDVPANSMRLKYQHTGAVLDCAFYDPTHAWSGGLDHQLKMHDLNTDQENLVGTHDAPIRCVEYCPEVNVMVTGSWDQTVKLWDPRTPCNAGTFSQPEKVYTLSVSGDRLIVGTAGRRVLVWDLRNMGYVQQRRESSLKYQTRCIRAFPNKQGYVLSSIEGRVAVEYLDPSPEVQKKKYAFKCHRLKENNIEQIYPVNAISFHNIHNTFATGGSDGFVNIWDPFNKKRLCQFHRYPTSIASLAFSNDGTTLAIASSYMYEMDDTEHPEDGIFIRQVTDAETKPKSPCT
UniProt P52294: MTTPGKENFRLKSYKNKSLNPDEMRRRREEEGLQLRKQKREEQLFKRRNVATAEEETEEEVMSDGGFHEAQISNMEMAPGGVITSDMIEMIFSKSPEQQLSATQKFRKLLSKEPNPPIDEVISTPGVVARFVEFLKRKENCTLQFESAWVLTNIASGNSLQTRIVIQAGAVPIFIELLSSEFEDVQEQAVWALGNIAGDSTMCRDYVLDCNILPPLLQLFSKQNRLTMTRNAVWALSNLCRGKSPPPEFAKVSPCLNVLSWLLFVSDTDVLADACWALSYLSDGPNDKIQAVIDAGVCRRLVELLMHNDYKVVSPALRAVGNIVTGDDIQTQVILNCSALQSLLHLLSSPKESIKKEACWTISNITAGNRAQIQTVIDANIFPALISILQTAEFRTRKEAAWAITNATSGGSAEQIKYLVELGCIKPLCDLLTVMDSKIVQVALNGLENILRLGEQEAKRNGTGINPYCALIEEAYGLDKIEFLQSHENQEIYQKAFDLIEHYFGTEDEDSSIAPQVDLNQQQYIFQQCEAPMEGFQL
UniProt Q02156: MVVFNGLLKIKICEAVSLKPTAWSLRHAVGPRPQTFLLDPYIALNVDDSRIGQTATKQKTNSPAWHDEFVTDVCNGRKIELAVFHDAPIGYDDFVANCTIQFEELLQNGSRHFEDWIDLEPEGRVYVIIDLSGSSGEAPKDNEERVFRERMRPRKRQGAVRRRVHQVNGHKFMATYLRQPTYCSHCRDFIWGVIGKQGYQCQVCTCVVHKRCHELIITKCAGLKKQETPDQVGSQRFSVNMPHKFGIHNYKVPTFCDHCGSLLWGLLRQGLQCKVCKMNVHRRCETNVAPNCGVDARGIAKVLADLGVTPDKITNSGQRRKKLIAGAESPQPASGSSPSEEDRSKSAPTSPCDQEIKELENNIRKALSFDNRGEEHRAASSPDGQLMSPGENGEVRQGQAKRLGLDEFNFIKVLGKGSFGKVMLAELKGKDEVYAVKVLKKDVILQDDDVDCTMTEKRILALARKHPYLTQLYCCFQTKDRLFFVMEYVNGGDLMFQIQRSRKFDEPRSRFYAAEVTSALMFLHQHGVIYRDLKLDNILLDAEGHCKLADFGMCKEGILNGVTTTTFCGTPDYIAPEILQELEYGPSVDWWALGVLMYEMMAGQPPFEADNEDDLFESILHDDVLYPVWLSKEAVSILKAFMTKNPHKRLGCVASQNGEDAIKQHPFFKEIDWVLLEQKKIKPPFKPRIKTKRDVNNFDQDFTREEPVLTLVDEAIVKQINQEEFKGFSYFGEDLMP

How the values were obtained:
[1] = biological target: T1, endogenous IKKβ (U87/EGFR or U251 cells) (human) (UniProt O14920); assay: co-IP of membrane fractions, EGF-treated cells
T1 sequence (looked up): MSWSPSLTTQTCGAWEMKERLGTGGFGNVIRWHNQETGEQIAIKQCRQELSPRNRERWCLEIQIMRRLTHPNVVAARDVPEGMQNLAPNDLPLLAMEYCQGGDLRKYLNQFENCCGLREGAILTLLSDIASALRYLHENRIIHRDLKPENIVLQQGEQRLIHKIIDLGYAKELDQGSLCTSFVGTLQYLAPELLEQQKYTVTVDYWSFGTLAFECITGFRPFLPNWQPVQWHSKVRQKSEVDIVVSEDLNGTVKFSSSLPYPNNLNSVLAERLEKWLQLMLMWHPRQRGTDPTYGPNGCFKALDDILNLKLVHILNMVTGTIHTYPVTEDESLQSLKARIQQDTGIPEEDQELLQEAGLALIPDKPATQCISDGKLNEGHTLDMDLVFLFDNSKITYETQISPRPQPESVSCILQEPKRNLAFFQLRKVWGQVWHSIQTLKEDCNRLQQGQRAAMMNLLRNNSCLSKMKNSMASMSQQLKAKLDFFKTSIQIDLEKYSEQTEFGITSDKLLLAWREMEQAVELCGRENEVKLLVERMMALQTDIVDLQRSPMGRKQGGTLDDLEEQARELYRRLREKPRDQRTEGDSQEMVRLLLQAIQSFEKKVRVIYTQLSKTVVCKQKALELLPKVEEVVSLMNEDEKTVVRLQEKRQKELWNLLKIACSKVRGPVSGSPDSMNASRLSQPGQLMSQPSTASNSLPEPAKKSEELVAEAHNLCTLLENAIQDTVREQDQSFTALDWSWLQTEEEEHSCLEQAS

[2] = biological target: FLAG-tagged wild-type PKM2 (human) (UniProt P14618); assay: GST pull-down from lysates of EGF-treated U87/EGFR cells
[3] = biological target: purified recombinant His-Bub1 (UniProt O43683); assay: GST pull-down, purified proteins
[4] = biological target: purified recombinant GST-Bub3 (wild type) (UniProt O43684); assay: GST pull-down and co-IP (figure legend)
[5] = biological target: purified recombinant GST-Bub3 (wild type) (UniProt O43684); assay: GST pull-down, purified recombinant proteins

Substance: purified GST-importin α5 (from UniProt P52294 1-538)
binding [2]: binds

Substance: purified recombinant GST-Bub3 Y207F (from UniProt O43684 1-328)
binding [3]: binds

Second part, the substance after the results:

binding [1]: binds
Substance: endogenous PKCε (U87/EGFR or U251 cells) (from UniProt Q02156 1-737) (enzyme)

binding [3]: binds
Substance: purified recombinant GST-Bub3 (wild type) (from UniProt O43684 1-328)

binding [4]: binds
binding [5]: binds
Substance: purified recombinant His-PKM2 (wild type) (from UniProt P14618 1-531) (enzyme)
